Test results reported in doi:10.1101/336578.
No constants are given. Whether binding was seen depends on the method and setting. Binding calls can cover weak binding; strength is not graded here.

Sequences of proteins named here, by UniProt entry; tags and fusion partners are left off. A change or cut given only in a name is not applied to a line headed by its entry.
UniProt P07149: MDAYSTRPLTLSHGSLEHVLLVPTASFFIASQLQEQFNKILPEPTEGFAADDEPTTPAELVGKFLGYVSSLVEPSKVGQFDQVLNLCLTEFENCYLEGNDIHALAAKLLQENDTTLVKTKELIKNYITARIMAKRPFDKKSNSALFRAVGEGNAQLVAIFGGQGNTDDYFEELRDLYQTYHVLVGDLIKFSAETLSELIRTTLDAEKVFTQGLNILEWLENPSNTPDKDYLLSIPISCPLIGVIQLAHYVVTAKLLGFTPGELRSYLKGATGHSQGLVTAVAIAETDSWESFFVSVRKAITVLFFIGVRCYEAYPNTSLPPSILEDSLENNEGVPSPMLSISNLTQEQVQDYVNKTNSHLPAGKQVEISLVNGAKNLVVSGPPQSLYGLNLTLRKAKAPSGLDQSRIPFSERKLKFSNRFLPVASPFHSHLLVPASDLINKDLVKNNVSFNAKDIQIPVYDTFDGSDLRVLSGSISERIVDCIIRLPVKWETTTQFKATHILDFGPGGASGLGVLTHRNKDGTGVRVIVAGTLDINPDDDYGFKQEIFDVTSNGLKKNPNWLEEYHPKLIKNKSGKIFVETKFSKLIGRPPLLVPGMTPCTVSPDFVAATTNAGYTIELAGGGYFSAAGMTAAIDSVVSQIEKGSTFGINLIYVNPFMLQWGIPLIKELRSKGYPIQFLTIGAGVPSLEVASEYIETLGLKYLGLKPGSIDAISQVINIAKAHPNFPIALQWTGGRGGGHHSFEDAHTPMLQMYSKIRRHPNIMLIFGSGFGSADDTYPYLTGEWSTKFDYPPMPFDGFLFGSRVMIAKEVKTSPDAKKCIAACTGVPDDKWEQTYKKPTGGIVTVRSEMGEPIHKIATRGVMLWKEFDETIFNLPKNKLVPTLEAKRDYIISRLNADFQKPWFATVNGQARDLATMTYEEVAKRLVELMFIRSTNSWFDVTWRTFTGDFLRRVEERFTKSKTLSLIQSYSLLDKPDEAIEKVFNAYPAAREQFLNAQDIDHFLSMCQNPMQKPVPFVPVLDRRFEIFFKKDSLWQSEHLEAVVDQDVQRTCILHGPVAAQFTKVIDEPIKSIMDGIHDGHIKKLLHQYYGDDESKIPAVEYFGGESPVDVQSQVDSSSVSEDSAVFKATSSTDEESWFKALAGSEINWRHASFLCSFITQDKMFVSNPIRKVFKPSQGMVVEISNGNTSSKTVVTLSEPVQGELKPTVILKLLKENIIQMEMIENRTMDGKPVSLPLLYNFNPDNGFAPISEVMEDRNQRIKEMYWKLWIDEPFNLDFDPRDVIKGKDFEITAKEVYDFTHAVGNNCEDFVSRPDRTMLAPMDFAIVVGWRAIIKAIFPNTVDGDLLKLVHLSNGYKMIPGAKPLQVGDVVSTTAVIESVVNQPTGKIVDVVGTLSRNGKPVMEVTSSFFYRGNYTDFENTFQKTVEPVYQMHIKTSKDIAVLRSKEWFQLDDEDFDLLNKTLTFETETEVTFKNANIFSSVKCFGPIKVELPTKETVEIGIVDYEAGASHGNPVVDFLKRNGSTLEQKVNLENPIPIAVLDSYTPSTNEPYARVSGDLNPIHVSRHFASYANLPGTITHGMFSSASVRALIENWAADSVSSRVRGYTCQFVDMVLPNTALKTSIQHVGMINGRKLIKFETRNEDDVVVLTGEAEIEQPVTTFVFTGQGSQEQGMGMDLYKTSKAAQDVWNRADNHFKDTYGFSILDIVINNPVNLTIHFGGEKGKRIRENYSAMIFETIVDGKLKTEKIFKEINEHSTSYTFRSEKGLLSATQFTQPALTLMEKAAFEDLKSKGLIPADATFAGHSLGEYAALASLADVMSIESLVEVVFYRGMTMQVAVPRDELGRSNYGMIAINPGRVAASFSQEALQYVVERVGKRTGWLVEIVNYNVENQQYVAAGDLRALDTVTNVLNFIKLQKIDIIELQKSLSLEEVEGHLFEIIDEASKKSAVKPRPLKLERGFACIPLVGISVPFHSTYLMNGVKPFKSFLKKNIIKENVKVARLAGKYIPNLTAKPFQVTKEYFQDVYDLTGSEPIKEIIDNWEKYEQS
UniProt P19097: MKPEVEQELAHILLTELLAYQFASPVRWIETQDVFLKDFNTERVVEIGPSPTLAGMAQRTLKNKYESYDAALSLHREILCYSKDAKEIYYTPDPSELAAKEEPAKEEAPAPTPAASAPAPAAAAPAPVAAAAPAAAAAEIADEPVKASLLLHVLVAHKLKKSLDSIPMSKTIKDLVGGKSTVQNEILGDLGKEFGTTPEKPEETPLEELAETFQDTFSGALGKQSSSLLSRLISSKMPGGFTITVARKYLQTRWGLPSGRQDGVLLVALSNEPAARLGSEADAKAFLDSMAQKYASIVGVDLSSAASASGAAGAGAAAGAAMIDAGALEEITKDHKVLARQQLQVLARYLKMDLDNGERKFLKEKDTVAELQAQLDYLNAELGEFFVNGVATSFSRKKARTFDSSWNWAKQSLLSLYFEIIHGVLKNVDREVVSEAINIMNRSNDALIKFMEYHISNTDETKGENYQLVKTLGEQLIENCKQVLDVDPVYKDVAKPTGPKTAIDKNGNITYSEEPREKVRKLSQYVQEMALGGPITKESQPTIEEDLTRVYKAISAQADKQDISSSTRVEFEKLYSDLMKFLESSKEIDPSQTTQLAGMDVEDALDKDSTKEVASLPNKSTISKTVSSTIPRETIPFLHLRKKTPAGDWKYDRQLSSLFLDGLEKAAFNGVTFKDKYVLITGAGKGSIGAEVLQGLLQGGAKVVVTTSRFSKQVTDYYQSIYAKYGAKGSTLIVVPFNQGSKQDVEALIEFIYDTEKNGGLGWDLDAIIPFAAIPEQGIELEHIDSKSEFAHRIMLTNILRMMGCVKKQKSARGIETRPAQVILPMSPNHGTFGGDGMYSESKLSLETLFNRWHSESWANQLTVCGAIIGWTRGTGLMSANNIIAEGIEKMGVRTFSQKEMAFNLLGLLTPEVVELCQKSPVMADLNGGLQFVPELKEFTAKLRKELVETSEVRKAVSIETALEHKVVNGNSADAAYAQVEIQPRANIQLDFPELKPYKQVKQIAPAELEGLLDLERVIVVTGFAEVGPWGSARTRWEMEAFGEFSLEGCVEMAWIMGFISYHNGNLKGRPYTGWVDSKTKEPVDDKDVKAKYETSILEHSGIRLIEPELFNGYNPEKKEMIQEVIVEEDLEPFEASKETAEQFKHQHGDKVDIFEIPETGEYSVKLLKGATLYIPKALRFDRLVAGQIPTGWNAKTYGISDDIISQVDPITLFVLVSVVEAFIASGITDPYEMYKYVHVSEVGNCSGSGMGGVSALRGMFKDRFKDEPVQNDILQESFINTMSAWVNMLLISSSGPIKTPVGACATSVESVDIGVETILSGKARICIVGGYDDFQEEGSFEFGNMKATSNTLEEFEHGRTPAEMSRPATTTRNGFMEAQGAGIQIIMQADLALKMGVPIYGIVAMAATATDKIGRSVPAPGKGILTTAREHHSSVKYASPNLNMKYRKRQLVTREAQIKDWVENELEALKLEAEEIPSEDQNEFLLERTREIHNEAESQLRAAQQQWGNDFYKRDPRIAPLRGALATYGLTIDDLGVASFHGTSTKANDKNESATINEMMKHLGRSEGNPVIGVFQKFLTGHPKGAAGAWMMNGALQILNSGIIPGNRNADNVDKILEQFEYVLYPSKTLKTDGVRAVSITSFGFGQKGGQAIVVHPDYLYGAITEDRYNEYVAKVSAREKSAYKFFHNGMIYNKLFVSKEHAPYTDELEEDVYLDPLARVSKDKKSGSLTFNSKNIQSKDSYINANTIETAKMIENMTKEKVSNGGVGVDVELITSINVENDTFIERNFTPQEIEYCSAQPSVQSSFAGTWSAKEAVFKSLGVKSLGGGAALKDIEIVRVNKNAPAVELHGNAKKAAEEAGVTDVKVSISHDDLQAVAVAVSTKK

Assays:
[1] = biological target: S. cerevisiae FAS β-chain with the N-terminal trimerization module TM deleted (S. cerevisiae) (UniProt P07149); test: native gel or EMSA
[2] = biological target: S. cerevisiae FAS β-chain, wildtype (FAS1-encoded polypeptide) (S. cerevisiae) (UniProt P07149); test: native gel or EMSA

| binding [1] | binding [2] | Substance |
| --- | --- | --- |
| binds | binds | S. cerevisiae FAS α-chain with the embedded dimerization module DM2 deleted (from UniProt P19097) |
| binds | – | S. cerevisiae FAS α-chain, wildtype (FAS2-encoded polypeptide) (from UniProt P19097 1-1887) |
